# This is one part of the list.
# The chains behind the UniProt entries cited, without tags or fusion partners. Where a name states a change or a piece, a line headed by the entry shows the natural chain unless it says otherwise.
# UniProt P30533, whole entry, looked up: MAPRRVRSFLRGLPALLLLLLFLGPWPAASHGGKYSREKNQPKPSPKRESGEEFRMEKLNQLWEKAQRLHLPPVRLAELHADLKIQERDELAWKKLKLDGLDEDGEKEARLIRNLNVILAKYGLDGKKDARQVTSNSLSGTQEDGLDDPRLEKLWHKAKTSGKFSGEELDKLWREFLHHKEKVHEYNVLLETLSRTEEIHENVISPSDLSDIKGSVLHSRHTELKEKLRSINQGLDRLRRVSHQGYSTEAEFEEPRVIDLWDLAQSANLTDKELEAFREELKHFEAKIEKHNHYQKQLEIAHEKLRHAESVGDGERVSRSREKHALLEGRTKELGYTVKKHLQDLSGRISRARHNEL
# UniProt P48357: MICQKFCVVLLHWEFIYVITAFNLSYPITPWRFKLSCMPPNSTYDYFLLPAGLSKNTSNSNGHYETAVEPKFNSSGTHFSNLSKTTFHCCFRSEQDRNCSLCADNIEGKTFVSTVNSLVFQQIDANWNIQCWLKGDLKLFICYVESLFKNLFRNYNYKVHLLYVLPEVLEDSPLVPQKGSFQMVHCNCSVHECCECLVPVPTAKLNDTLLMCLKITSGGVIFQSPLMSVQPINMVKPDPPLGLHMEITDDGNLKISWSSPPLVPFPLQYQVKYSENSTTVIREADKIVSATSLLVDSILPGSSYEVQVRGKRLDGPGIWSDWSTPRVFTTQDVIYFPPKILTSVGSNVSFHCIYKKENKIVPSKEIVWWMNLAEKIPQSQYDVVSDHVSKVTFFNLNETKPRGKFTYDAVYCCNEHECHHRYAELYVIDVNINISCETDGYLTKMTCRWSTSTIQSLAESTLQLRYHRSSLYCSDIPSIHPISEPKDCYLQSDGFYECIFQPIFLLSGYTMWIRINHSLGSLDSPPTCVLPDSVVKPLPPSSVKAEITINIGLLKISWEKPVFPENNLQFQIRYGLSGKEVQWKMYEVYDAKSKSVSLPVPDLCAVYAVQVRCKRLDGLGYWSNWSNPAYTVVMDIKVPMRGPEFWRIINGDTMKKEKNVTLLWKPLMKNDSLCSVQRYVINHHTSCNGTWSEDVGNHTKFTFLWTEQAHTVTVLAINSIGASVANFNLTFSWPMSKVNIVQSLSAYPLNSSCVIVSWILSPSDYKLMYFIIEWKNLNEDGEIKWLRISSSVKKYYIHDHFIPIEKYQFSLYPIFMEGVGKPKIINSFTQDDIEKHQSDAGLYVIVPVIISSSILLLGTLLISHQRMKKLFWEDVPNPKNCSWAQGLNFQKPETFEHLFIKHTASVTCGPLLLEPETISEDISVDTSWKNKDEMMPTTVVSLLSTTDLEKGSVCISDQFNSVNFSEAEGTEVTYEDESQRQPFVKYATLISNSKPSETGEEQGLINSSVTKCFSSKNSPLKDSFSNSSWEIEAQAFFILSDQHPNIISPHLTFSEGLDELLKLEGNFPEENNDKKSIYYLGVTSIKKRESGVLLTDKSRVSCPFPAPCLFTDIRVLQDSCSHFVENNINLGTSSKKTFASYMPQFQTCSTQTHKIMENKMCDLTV
# UniProt Q9UHA4, whole entry, looked up: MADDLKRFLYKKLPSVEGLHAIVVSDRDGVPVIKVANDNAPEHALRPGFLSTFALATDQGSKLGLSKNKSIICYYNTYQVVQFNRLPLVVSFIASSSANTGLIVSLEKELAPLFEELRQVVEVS
# UniProt Q8TCA0: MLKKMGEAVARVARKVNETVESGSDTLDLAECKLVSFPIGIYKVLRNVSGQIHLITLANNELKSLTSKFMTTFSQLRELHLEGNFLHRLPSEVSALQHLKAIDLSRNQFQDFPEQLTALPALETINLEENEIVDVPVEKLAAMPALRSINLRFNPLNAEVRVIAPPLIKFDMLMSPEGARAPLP
# UniProt Q9H008: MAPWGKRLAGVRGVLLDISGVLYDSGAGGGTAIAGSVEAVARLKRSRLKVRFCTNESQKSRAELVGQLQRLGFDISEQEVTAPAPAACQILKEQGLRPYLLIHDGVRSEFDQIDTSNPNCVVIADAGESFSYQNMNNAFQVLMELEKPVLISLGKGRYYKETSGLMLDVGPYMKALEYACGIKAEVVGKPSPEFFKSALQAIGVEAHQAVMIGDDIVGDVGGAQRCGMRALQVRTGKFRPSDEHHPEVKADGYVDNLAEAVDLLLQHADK
# UniProt Q6P1A2: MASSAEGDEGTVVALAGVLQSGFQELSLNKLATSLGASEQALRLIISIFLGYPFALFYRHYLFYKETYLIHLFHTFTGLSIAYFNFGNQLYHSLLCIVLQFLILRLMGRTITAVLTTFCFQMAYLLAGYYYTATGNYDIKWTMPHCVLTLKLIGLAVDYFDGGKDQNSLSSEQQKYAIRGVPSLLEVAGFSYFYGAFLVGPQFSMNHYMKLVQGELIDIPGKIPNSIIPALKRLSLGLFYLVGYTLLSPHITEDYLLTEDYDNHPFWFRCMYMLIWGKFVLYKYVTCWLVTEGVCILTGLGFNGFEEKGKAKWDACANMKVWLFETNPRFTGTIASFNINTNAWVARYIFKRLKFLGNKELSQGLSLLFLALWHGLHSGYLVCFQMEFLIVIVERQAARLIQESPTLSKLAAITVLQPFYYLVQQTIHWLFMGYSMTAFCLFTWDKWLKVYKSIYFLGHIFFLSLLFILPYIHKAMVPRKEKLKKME
# UniProt Q12907: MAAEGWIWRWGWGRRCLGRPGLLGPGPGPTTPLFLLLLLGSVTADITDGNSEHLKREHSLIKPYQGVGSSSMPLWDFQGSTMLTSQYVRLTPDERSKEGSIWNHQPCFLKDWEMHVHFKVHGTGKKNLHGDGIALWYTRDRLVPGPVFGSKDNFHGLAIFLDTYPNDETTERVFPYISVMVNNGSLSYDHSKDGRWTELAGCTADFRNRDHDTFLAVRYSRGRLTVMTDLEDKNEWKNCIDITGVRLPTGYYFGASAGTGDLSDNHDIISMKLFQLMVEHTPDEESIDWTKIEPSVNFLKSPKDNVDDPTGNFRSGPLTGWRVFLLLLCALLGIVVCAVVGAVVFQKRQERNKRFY
# UniProt Q9UHB6: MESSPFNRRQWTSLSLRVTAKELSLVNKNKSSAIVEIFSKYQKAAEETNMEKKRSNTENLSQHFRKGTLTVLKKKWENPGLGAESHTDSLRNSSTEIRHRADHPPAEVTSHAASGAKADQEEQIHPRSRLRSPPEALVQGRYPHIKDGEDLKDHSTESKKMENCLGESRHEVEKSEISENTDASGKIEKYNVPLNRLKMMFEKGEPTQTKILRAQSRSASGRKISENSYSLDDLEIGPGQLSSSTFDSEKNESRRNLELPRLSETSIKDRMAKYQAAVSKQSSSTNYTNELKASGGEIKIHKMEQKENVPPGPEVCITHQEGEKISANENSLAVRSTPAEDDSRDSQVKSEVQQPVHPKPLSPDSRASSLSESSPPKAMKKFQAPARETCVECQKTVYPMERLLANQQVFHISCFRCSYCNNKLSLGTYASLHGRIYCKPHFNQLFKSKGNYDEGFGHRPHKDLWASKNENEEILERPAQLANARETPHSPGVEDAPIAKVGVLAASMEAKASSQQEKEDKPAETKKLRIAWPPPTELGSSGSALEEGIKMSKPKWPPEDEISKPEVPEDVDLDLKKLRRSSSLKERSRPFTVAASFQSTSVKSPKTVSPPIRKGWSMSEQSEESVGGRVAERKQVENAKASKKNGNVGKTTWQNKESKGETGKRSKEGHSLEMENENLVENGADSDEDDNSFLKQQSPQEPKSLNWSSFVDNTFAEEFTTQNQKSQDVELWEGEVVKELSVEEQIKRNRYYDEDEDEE
# Assays:
# Assay in all cases: log2 fold change, soluble protein after heating vs DMSO (PISA); higher = thermal stabilisation; K562 cells, 10 uM, 30 min; active = over 0.2 and 3.5 SD of the protein, either way, in both replicates (recomputed)
# [1] = compound: Cc1ccc(NC(=O)c2ccc(CN3CC[C@H](N(C)C)C3)c(C(F)(F)F)c2)cc1Nc1nccc(-c2cncnc2)n1 [bafetinib]
# Procedure, shortened: (§1)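 K562 cells at 2×10^6 cells/mL were treated for 30 min with 10 μM compound, and aliquots were heated for 3 min over 48°C-58°C before pooling. Extraction used PBS with 0.5% NP-40 at 4°C, and soluble protein was the supernatant after 21,000xg for 90 min, measured by TMTpro 16plex LC-MS/MS with channel sums equalised. Thermal stability values, relative to control samples and from duplicates, are log2 fold changes.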
# [2] = compound: Cc1cccc(CC(=O)N2CCc3c2ccc(-c2cn(C)c4ncnc(N)c24)c3F)n1
# Procedure, shortened: as §1
# [3] = compound: Cc1cn(-c2cc(NC(=O)c3ccc(C)c(Nc4nccc(-c5cccnc5)n4)c3)cc(C(F)(F)F)c2)cn1 [nilotinib]
# Procedure, shortened: as §1
# [4] = compound: Cc1nc(Nc2n[nH]c3c2CN(C(=O)N[C@H](CN(C)C)c2ccccc2)C3(C)C)c2sccc2n1
# Procedure, shortened: as §1
# [5] = compound: Cc1nc(Nc2ncc(C(=O)Nc3c(C)cccc3Cl)s2)cc(N2CCN(CCO)CC2)n1 [dasatinib]
# Procedure, shortened: as §1
# [6] = compound: Cc1ncc(-c2ccnc(Nc3ccc(S(C)(=O)=O)cc3)n2)n1C(C)C
# Procedure, shortened: as §1
# [7] = compound: Cn1cc(-c2ccc3c(c2)CCN3C(=O)Cc2cccc(C(F)(F)F)c2)c2c(N)ncnc21
# Procedure, shortened: as §1
# [8] = compound: Cn1cc(-c2ccc3nnc(C(F)(F)c4ccc5ncccc5c4)n3n2)cn1
# Procedure, shortened: as §1
# [9] = compound: Cn1cncc1[C@@](N)(c1ccc(Cl)cc1)c1ccc2c(c1)c(-c1cccc(Cl)c1)cc(=O)n2C [tipifarnib]
# Procedure, shortened: as §1
# [10] = compound: FC(F)(F)c1ccc(/C=C/c2nc(COc3ccc(CCCCn4ccnn4)cc3)co2)cc1 [mubritinib]
# Procedure, shortened: as §1
# [11] = compound: NC(=O)Nc1cc(-c2cccc(F)c2)sc1C(=O)N[C@H]1CCCNC1
# Procedure, shortened: as §1
# [12] = compound: NC(=O)c1cnc(N[C@@H]2CCCC[C@@H]2N)nc1Nc1cccc(-n2nccn2)c1
# Procedure, shortened: as §1
# [13] = compound: NC1(c2ccc(-c3nc4ccn5c(=O)[nH]nc5c4cc3-c3ccccc3)cc2)CCC1
# Procedure, shortened: as §1
# [14] = compound: NCC(=O)Nc1ccc(-n2nc(C(F)(F)F)cc2-c2ccc3c(ccc4ccccc43)c2)cc1
# Procedure, shortened: as §1
# [15] = compound: Nc1ccccc1NC(=O)c1ccc(CNC(=O)OCc2cccnc2)cc1 [entinostat]
# Procedure, shortened: as §1
# [16] = compound: O=C(CCCCCCC(=O)Nc1ccccc1)NO [vorinostat]
# Procedure, shortened: as §1
# [17] = compound: O=C(CCCCCCNC(=O)c1cnc(N(c2ccccc2)c2ccccc2Cl)nc1)NO [citarinostat]
# Procedure, shortened: as §1
# [18] = compound: O=C(O)c1ccc2c(c1)nc(Nc1cccc(Cl)c1)c1ccncc12 [silmitasertib]
# Procedure, shortened: as §1
# [19] = compound: O=C1NC(=O)C(c2cnc3ccccn23)=C1c1cn2c3c(cc(F)cc13)CN(C(=O)N1CCCCC1)CC2
# Procedure, shortened: as §1
# [20] = compound: c1cc(OCCN2CCCCC2)cc(-c2n[nH]c3ccc(-c4nnc[nH]4)cc23)c1
# Procedure, shortened: as §1
Target,log2 fold change [1],log2 fold change [2],log2 fold change [3],log2 fold change [4],log2 fold change [5],log2 fold change [6],log2 fold change [7],log2 fold change [8],log2 fold change [9],log2 fold change [10],log2 fold change [11],log2 fold change [12],log2 fold change [13],log2 fold change [14],log2 fold change [15],log2 fold change [16],log2 fold change [17],log2 fold change [18],log2 fold change [19],log2 fold change [20]
LRPAP1 (UniProt P30533),inactive: -0.044,inactive: -0.054,inactive: 0.035,inactive: -0.029,inactive: 0.014,inactive: -0.008,inactive: -0.032,inactive: -0.041,inactive: 0.052,inactive: -0.019,inactive: -0.034,inactive: -0.031,inactive: 0.024,inactive: 0.022,inactive: -0.037,inactive: -0.044,inactive: -0.005,inactive: 0.008,inactive: -0.02,inactive: -0.02
LEPR (UniProt P48357),inactive: -0.06,inactive: -0.011,inactive: 0.1,inactive: 0.019,inactive: 0.016,inactive: -0.001,inactive: -0.022,inactive: -0.028,inactive: 0.043,inactive: 0.042,inactive: -0.044,inactive: -0.014,inactive: -0.009,inactive: 0.069,inactive: -0.031,inactive: 0.002,inactive: 0.024,inactive: -0.002,inactive: -0.011,inactive: -0.075
LAMTOR3 (UniProt Q9UHA4),inactive: -0.107,inactive: 0.07,inactive: -0.108,inactive: -0.017,inactive: 0.017,inactive: -0.174,inactive: 0.007,inactive: 0.08,inactive: 0.042,inactive: 0.063,inactive: 0.087,inactive: -0.238,inactive: -0.092,inactive: -0.096,inactive: 0.091,inactive: 0.017,inactive: 0.099,inactive: -0.023,inactive: -0.071,inactive: -0.063
LRRC20 (UniProt Q8TCA0),inactive: -0.01,inactive: 0.025,inactive: -0.012,inactive: -0.042,inactive: -0.006,inactive: -0.027,inactive: 0.028,inactive: 0.145,inactive: -0.023,inactive: 0.035,inactive: -0.006,inactive: -0.067,inactive: -0.045,inactive: 0.034,inactive: 0.016,inactive: 0,inactive: 0,inactive: -0.048,inactive: -0.027,inactive: -0.094
LHPP (UniProt Q9H008),inactive: -0.034,inactive: 0.006,inactive: -0.008,inactive: -0.14,inactive: 0.031,inactive: -0.049,inactive: 0.044,inactive: -0.15,inactive: 0.054,inactive: -0.032,inactive: -0.075,inactive: 0.04,inactive: -0.01,inactive: -0.006,inactive: -0.021,inactive: -0.024,inactive: -0.022,inactive: 0.02,inactive: -0.072,inactive: 0.087
LPCAT3 (UniProt Q6P1A2),inactive: 0.108,inactive: 0.063,inactive: 0.044,inactive: 0,inactive: 0.051,active: 0.363,inactive: 0.153,inactive: -0.015,inactive: -0.216,inactive: 0.034,inactive: -0.074,inactive: -0.105,inactive: -0.185,inactive: -0.229,inactive: 0.044,inactive: 0.024,inactive: 0.087,inactive: 0.05,inactive: -0.091,inactive: 0.072
LMAN2 (UniProt Q12907),inactive: -0.072,inactive: 0,inactive: -0.008,inactive: 0.008,inactive: -0.025,inactive: -0.004,inactive: 0.017,inactive: 0.041,inactive: 0.027,inactive: 0,inactive: -0.034,inactive: -0.035,inactive: -0.098,inactive: -0.019,inactive: 0.007,inactive: 0.017,inactive: 0.037,inactive: 0.021,inactive: -0.032,inactive: -0.034
LIMA1 isoform 4 (UniProt Q9UHB6),inactive: -0.115,inactive: 0.019,inactive: -0.136,inactive: -0.112,inactive: 0.179,inactive: 0.052,inactive: -0.154,inactive: -0.071,inactive: 0.088,inactive: 0.019,inactive: 0.062,inactive: -0.045,inactive: 0.081,inactive: 0.006,inactive: 0.004,inactive: 0.067,inactive: -0.024,inactive: -0.006,inactive: -0.073,inactive: -0.012

# 2 records drawn at random from the list so far, as already listed:
Target,log2 fold change [1],log2 fold change [2],log2 fold change [3],log2 fold change [4],log2 fold change [5],log2 fold change [6],log2 fold change [7],log2 fold change [8],log2 fold change [9],log2 fold change [10],log2 fold change [11],log2 fold change [12],log2 fold change [13],log2 fold change [14],log2 fold change [15],log2 fold change [16],log2 fold change [17],log2 fold change [18],log2 fold change [19],log2 fold change [20]
LRRC20 (UniProt Q8TCA0),inactive: -0.01,inactive: 0.025,inactive: -0.012,inactive: -0.042,inactive: -0.006,inactive: -0.027,inactive: 0.028,inactive: 0.145,inactive: -0.023,inactive: 0.035,inactive: -0.006,inactive: -0.067,inactive: -0.045,inactive: 0.034,inactive: 0.016,inactive: 0,inactive: 0,inactive: -0.048,inactive: -0.027,inactive: -0.094
LHPP (UniProt Q9H008),inactive: -0.034,inactive: 0.006,inactive: -0.008,inactive: -0.14,inactive: 0.031,inactive: -0.049,inactive: 0.044,inactive: -0.15,inactive: 0.054,inactive: -0.032,inactive: -0.075,inactive: 0.04,inactive: -0.01,inactive: -0.006,inactive: -0.021,inactive: -0.024,inactive: -0.022,inactive: 0.02,inactive: -0.072,inactive: 0.087

# From the supplement of paper PMC10849652
